This is an account of results in the supplement of paper PMC10849652.

Protein sequences, listed by entry. Tags and fused reporters are not part of them. Lines headed by an entry give the natural chain unless they say otherwise; changes in a name come on top.
UniProt Q5JV73, whole entry, looked up: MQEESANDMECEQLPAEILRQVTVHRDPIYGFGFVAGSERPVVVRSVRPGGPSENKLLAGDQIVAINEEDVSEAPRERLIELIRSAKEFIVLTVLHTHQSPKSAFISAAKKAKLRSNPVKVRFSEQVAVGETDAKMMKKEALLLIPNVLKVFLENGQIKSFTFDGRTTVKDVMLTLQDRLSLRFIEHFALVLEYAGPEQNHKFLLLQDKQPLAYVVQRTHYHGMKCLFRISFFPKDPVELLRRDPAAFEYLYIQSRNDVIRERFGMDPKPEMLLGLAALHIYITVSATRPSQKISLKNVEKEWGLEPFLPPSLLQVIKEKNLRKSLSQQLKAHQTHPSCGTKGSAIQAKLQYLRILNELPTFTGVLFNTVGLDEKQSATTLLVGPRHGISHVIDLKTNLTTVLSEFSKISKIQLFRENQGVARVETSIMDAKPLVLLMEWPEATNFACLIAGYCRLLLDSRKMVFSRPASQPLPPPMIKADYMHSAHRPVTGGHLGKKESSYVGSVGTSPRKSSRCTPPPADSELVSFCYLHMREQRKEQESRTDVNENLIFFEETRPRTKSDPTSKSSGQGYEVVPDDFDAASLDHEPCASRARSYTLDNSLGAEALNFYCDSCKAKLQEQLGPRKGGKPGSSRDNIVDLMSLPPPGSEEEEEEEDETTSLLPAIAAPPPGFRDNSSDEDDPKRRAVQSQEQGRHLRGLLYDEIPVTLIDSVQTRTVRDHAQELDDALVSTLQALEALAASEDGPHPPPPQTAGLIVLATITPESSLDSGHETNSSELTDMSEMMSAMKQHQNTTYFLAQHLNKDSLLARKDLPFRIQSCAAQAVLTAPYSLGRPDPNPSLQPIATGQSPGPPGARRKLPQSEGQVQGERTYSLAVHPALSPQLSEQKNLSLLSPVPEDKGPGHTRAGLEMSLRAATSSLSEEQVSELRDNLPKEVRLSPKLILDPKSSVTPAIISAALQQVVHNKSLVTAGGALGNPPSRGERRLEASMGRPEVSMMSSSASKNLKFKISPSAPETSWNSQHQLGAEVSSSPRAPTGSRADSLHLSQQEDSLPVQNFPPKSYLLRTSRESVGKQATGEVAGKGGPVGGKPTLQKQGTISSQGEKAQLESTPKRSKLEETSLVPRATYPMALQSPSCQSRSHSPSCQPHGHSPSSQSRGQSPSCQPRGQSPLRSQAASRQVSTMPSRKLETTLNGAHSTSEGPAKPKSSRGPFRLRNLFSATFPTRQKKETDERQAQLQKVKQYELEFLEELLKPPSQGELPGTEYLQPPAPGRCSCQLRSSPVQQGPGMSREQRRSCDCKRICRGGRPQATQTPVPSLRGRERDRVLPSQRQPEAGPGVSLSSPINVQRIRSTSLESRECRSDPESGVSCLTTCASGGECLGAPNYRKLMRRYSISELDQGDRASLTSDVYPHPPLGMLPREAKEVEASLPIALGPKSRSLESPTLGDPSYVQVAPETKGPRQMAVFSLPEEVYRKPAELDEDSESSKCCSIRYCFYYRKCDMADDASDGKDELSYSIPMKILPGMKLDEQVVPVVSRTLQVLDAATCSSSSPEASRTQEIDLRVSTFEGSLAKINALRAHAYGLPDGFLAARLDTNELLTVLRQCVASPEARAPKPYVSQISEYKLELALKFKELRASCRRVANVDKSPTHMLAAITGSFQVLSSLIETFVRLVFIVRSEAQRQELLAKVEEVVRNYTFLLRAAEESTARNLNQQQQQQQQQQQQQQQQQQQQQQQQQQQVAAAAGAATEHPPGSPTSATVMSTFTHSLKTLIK
UniProt Q6ZNW5: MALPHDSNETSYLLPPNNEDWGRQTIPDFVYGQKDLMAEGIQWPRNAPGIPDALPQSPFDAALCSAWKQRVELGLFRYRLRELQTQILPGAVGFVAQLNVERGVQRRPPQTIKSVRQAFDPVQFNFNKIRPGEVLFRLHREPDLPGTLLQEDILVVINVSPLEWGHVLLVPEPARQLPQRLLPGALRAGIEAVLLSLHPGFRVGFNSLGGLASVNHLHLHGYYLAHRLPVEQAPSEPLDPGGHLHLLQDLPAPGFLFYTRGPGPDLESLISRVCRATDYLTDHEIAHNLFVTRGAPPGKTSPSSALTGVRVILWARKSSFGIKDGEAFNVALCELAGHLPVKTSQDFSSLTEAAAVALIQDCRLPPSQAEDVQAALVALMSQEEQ
UniProt Q96AE4: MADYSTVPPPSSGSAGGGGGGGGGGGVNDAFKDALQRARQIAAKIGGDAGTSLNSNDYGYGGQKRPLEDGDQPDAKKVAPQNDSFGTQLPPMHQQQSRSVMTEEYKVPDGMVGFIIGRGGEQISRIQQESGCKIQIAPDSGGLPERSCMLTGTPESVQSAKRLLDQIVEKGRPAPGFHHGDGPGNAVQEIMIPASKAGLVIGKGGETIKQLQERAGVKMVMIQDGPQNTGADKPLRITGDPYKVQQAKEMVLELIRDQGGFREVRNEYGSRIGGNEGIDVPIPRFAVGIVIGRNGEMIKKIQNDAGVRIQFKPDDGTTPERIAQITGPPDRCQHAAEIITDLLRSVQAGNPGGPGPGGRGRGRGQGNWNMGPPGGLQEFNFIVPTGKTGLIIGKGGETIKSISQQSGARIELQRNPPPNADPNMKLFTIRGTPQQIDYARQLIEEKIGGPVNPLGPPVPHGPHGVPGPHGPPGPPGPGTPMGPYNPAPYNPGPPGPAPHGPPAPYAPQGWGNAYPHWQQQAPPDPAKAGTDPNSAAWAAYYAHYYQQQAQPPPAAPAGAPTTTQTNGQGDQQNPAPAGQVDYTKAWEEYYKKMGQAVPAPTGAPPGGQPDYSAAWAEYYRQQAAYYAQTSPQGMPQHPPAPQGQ
UniProt O75879: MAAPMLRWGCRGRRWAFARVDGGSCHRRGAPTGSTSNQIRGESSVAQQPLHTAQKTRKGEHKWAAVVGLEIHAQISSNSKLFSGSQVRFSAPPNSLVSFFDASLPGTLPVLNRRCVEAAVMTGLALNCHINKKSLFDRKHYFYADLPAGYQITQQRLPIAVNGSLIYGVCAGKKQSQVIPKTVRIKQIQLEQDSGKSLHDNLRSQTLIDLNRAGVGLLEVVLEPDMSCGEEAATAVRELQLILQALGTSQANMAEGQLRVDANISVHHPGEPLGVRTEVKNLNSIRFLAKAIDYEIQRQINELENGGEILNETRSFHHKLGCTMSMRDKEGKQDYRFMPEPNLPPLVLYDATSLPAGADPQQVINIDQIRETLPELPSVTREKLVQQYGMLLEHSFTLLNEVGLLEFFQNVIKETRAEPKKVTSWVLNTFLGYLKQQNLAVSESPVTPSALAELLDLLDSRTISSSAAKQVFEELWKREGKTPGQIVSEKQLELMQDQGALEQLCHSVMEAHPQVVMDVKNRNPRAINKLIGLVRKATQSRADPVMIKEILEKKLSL
FOXO3B, A0A2Z4LIS9, UniProt A0A2Z4LIS9, whole entry, looked up: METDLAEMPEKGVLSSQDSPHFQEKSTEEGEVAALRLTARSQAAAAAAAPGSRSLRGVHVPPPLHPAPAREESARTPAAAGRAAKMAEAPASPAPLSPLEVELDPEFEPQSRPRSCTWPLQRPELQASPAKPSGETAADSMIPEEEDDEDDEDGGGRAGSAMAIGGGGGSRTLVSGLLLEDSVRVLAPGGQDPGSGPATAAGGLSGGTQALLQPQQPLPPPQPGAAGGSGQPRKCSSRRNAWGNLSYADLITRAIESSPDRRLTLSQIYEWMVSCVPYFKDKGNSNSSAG
UniProt Q9UET6: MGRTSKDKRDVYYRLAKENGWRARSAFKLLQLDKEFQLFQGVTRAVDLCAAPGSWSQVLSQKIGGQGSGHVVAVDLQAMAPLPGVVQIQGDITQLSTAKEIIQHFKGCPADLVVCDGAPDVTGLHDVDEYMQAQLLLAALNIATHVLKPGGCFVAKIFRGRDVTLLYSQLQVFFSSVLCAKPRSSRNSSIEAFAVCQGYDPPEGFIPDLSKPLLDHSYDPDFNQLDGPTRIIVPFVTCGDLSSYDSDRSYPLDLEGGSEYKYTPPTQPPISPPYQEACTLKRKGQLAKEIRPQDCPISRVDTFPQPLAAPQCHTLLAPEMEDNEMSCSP
UniProt Q8IXK2: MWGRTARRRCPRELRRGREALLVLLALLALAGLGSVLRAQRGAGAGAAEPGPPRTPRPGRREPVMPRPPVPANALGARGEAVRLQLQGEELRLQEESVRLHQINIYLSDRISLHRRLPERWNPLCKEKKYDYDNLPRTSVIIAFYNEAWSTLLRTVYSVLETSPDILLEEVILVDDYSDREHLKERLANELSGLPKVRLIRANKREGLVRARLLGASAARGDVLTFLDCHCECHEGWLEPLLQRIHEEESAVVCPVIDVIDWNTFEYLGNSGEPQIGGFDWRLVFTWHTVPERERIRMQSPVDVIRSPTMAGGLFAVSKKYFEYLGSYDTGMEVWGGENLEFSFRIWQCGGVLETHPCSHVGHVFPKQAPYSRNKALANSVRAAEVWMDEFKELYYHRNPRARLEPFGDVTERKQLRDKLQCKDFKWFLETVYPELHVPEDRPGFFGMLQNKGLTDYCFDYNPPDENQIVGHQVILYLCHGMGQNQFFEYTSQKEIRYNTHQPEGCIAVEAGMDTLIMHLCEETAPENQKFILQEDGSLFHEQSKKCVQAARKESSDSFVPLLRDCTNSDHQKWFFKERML
UniProt Q9BTY2: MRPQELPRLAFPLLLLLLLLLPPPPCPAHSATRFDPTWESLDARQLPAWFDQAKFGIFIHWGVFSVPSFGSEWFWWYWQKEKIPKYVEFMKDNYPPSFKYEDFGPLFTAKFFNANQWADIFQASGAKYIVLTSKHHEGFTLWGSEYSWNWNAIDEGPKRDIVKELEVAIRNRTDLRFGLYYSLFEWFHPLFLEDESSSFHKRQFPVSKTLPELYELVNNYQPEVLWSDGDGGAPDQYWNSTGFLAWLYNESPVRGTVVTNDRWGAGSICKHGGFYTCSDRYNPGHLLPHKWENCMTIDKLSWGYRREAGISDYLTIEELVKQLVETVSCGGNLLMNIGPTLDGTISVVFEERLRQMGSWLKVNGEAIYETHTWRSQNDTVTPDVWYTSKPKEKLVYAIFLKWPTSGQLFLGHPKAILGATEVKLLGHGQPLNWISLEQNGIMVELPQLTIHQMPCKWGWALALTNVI
UniProt Q9UPW0: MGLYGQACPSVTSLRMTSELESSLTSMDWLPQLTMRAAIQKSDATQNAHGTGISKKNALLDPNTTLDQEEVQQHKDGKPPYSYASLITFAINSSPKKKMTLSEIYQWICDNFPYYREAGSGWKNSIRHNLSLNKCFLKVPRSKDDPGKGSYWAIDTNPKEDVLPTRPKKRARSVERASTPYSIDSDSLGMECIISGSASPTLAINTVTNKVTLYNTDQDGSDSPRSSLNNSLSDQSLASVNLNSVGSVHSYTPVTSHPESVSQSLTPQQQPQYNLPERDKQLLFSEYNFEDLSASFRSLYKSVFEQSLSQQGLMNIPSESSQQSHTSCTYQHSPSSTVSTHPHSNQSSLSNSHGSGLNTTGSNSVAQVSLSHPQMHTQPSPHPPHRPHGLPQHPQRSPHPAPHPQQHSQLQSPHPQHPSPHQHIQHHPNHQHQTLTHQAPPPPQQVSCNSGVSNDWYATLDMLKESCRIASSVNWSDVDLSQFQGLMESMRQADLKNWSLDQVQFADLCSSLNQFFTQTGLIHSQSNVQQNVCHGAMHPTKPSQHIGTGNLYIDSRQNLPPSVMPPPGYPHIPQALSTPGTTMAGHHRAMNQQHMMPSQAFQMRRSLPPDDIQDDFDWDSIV
UniProt P0CL80: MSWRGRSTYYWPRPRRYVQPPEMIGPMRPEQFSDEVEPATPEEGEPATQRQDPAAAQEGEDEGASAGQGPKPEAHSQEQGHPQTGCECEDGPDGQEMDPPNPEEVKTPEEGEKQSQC
UniProt Q92947: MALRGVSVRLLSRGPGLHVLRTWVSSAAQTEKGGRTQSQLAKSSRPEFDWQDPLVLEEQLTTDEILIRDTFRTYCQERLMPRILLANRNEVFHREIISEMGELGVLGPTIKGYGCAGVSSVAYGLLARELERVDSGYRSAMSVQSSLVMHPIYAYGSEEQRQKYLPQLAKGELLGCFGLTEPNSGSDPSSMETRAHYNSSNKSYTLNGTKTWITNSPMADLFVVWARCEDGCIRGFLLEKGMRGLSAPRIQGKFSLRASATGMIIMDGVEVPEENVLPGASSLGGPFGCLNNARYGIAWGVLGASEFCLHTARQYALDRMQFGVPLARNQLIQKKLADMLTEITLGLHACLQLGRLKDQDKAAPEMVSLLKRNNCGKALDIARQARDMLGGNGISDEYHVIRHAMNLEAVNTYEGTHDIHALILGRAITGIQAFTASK
UniProt P04406: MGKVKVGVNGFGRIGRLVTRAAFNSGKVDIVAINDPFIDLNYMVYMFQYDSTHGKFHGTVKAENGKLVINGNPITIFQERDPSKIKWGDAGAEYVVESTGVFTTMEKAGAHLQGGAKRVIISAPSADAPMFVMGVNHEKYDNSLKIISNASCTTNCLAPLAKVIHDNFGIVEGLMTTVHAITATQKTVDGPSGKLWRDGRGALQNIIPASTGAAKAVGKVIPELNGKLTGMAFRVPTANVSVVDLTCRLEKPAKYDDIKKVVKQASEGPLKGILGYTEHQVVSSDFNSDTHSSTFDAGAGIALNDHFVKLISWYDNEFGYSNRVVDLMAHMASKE

Some of the results follow.

Compound in the first assay: NCC(=O)Nc1ccc(-n2nc(C(F)(F)F)cc2-c2ccc3c(ccc4ccccc43)c2)cc1
Nature of the assay: log2 fold change, soluble protein after heating vs DMSO (PISA); higher = thermal stabilisation; K562 lysate, 10 uM; active = over 0.2 and 3.5 SD of the protein, either way, in both replicates (recomputed). In a few lines: (§1)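 Thermal stability, expressed as log-two fold change relative to solvent controls, is given from duplicates. Crude K562 extract in PBS pH 7.4 with 1 mM MgCl2, at 1 mg/mL protein, was treated with 10 μM compound for 30 min and heated in aliquots for 3 min across 48°C-58°C. After pooling, adjustment to 0.5% NP-40 at 4°C and centrifugation at 21,000xg for 90 min, supernatant protein was measured by TMTpro 16plex LC-MS/MS with channel sums equalised.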
As to FRMPD3 (UniProt Q5JV73), the log2 fold change was inactive: 0.029.

Take GGA2 (UniProt Q9UJY4): the log2 fold change is inactive: -0.042.

In the case of FRA10AC1 (UniProt Q70Z53), the log2 fold change was inactive: 0.008. On the same count and under the same terms, with GDI1 (UniProt P31150) the figure was inactive: -0.022; with GDPGP1 (UniProt Q6ZNW5), inactive: 0.068; with GDI2 (UniProt Q5SX86), inactive: -0.126. As to GCFC2 (UniProt P16383), the log2 fold change is inactive: 0.006. The same measure, in the same setting: to GALNT1 (UniProt Q10472) belongs inactive: -0.021.

Regarding FTSJ3 (UniProt Q8IY81), the log2 fold change was inactive: -0.034. The same measure, in the same setting: to GDF15 (UniProt Q99988) belongs inactive: 0.081. Regarding FXR1 (UniProt P51114), the log2 fold change is inactive: -0.006. The same measure, in the same setting: to FUBP1 isoform 2 (UniProt Q96AE4) belongs inactive: 0.005; to FUNDC2 (UniProt H7C0K8), inactive: 0.193; to GATB (UniProt O75879), inactive: -0.026. Still for that read-out and setting: with GAN (UniProt Q9H2C0) the figure was inactive: 0.014; with FOXO3B, A0A2Z4LIS9, inactive: -0.01. On the same count and under the same terms, to GABARAPL2 (UniProt P60520) belongs inactive: 0.083; to GABPA (UniProt Q06546), inactive: 0.009.

FTSJ1 (UniProt Q9UET6): the log2 fold change was inactive: -0.024. On the same count and under the same terms, to GALNT12 (UniProt Q8IXK2) belongs inactive: 0.047; to GAGE5 (UniProt Q13069), inactive: -0.037; to FOXP1 (UniProt Q9H334), inactive: 0.088. The same measure, in the same setting: with FUCA2 (UniProt Q9BTY2) the figure was inactive: -0.018; with GARS1 (UniProt P41250), inactive: 0.016; with GEMIN4 (UniProt P57678), inactive: -0.025. On the same count and under the same terms, to GAK (UniProt O14976) belongs inactive: 0.186.

Consider FOXJ3 (UniProt Q9UPW0), for which the log2 fold change is inactive: -0.016.

GAGE12F (UniProt P0CL80): the log2 fold change was inactive: -0.049. As to GCDH (UniProt Q92947), the log2 fold change is inactive: 0.004.

Consider GADD45GIP1 (UniProt Q8TAE8), for which the log2 fold change is inactive: 0.017.

For GAB2 (UniProt Q9UQC2), the log2 fold change is inactive: -0.004.

With FOXRED2 (UniProt Q8IWF2), the log2 fold change is inactive: 0.003. Still for that read-out and setting: with GDPD1 (UniProt Q8N9F7) the figure was inactive: -0.137. Regarding GAPDH (UniProt P04406), the log2 fold change is inactive: 0. Turning to GART (UniProt P22102), the log2 fold change is inactive: 0.017. The same measure, in the same setting: with GALNT2 (UniProt Q10471) the figure was inactive: -0.018; with GET4 (UniProt Q7L5D6), inactive: 0.039.

Consider GALNT11 (UniProt Q8NCW6), for which the log2 fold change was inactive: -0.072. In the case of G3BP2 (UniProt Q9UN86), the log2 fold change was inactive: 0.022.

Compound in another assay: O=C(CCCCCCC(=O)Nc1ccccc1)NO [vorinostat]
The assay is described as above. In a few lines:
as §1
For FRMPD3 (UniProt Q5JV73), the log2 fold change was inactive: -0.308. Consider GGA2 (UniProt Q9UJY4), for which the log2 fold change is active: -0.313. Still for that read-out and setting: to FRA10AC1 (UniProt Q70Z53) belongs inactive: 0.018; to GDI1 (UniProt P31150), inactive: 0.107. The same measure, in the same setting: to GDPGP1 (UniProt Q6ZNW5) belongs inactive: 0.045; to GDI2 (UniProt Q5SX86), inactive: -0.031; to GCFC2 (UniProt P16383), inactive: -0.113. Still for that read-out and setting: with GALNT1 (UniProt Q10472) the figure was inactive: 0.027. Turning to FTSJ3 (UniProt Q8IY81), the log2 fold change is inactive: 0.068.

Consider GDF15 (UniProt Q99988), for which the log2 fold change was inactive: 0.043. Same read-out and setting: to FXR1 (UniProt P51114) belongs active: -0.257; to FUBP1 isoform 2 (UniProt Q96AE4), inactive: 0.128; to GAN (UniProt Q9H2C0), inactive: -0.035. On the same count and under the same terms, to GABARAPL2 (UniProt P60520) belongs inactive: 0.128; to GABPA (UniProt Q06546), inactive: -0.173. Same read-out and setting: to FTSJ1 (UniProt Q9UET6) belongs active: -0.326; to GALNT12 (UniProt Q8IXK2), inactive: 0.087; to GAGE5 (UniProt Q13069), inactive: 0.145.

Regarding FOXP1 (UniProt Q9H334), the log2 fold change is inactive: -0.18.

Consider FUCA2 (UniProt Q9BTY2), for which the log2 fold change was inactive: 0.127. Same read-out and setting: to GARS1 (UniProt P41250) belongs inactive: 0.133. The same measure, in the same setting: to GEMIN4 (UniProt P57678) belongs active: -0.435. Same read-out and setting: to GAK (UniProt O14976) belongs inactive: -0.027.

In the case of FOXJ3 (UniProt Q9UPW0), the log2 fold change was active: -0.24. Consider GAGE12F (UniProt P0CL80), for which the log2 fold change is inactive: 0.069. With GCDH (UniProt Q92947), the log2 fold change is active: 0.34. For GADD45GIP1 (UniProt Q8TAE8), the log2 fold change is inactive: 0.103. Still for that read-out and setting: with GAB2 (UniProt Q9UQC2) the figure was inactive: -0.206; with FOXRED2 (UniProt Q8IWF2), inactive: 0.01. Still for that read-out and setting: with GDPD1 (UniProt Q8N9F7) the figure was inactive: 0.056; with GAPDH (UniProt P04406), active: 0.309; with GART (UniProt P22102), active: -0.303. As for GALNT2 (UniProt Q10471), the log2 fold change was inactive: 0.069. As for GET4 (UniProt Q7L5D6), the log2 fold change is inactive: 0.092. The same measure, in the same setting: with GALNT11 (UniProt Q8NCW6) the figure was inactive: 0.108; with G3BP2 (UniProt Q9UN86), inactive: 0.006.
